Some of the results follow.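 The calls were made as follows: active = dose-dependent thermal stabilisation significant by F-test of dose-response against flat model at 10% FDR; inactive = not significant.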
Each target was assayed with Nc1nc2c(ncn2[C@@H]2O[C@H](COP(=O)(O)OP(=O)(O)OP(=O)(O)O)[C@@H](O)[C@H]2O)c(=O)[nH]1 (assay: dose-dependent thermal stabilisation call (2D-TPP, DLPTP, 10% FDR) (binary (1 = stabilised)); higher = stabilised by the compound). Conditions: system: Jurkat gel-filtered lysate; concentration range 1-500 µM.

Sequences of proteins named here, by UniProt entry; tags and fusion partners are left off. A change or cut given only in a name is not applied to a line headed by its entry.
UniProt Q9NS87: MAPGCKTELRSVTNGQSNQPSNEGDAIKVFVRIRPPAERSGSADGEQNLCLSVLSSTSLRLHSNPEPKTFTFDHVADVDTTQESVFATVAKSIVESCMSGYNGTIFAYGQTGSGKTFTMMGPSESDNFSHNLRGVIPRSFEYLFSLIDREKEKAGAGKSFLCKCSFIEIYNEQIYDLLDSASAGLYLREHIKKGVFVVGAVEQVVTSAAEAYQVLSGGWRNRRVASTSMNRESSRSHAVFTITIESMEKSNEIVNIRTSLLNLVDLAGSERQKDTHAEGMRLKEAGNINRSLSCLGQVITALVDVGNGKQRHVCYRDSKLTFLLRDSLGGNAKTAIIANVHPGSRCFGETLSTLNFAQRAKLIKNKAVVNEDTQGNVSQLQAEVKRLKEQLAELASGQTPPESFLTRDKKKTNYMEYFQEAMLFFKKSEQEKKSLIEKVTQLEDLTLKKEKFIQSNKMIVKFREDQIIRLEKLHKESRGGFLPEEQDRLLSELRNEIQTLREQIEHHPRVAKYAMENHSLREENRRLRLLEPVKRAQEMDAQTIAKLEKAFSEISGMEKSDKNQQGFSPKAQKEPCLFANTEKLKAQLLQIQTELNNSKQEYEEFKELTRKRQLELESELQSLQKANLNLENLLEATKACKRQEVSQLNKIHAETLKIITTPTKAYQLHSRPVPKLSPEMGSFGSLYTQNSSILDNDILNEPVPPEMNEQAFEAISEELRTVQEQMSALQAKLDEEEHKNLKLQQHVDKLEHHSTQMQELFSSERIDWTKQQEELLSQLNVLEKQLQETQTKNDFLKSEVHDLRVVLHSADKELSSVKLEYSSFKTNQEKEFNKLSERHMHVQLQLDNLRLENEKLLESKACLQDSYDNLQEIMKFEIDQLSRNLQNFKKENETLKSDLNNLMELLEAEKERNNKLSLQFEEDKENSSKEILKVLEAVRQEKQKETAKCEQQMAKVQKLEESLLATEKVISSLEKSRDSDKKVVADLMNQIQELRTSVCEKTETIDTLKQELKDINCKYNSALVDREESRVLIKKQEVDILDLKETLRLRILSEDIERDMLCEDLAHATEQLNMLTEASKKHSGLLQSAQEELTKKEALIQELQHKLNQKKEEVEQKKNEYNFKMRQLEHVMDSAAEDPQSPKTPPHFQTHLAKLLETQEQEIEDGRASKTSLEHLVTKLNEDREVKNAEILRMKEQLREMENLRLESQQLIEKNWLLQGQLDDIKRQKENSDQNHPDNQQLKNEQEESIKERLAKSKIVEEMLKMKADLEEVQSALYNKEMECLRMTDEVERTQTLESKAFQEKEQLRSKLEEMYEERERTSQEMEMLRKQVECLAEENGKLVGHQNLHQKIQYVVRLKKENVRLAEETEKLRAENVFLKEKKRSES
UniProt Q9UGP4: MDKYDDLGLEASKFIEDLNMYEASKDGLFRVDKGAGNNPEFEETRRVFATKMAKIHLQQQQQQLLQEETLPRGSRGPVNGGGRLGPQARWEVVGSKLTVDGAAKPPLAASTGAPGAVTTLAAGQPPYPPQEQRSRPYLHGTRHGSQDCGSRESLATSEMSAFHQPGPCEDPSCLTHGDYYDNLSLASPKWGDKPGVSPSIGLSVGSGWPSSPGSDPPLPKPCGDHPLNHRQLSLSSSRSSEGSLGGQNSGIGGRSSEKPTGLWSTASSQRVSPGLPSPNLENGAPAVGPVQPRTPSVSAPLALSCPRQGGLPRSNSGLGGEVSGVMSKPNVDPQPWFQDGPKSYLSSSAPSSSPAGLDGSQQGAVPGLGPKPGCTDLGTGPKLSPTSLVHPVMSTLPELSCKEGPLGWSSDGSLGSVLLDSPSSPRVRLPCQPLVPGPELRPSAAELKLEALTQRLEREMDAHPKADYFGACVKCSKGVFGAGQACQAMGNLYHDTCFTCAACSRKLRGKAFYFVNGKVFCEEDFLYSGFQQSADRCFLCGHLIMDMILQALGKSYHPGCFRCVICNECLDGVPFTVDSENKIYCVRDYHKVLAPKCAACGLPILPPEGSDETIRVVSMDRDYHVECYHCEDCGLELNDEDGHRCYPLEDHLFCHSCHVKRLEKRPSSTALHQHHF
UniProt Q9Y448: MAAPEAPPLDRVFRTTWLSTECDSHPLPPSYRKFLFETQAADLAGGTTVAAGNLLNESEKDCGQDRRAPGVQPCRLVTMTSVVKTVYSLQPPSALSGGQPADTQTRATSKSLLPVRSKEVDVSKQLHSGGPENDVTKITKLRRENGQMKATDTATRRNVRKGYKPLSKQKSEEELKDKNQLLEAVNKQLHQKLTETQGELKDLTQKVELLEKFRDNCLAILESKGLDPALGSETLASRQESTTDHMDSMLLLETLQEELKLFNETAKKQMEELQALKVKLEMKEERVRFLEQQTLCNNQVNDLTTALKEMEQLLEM
UniProt Q9NQG7: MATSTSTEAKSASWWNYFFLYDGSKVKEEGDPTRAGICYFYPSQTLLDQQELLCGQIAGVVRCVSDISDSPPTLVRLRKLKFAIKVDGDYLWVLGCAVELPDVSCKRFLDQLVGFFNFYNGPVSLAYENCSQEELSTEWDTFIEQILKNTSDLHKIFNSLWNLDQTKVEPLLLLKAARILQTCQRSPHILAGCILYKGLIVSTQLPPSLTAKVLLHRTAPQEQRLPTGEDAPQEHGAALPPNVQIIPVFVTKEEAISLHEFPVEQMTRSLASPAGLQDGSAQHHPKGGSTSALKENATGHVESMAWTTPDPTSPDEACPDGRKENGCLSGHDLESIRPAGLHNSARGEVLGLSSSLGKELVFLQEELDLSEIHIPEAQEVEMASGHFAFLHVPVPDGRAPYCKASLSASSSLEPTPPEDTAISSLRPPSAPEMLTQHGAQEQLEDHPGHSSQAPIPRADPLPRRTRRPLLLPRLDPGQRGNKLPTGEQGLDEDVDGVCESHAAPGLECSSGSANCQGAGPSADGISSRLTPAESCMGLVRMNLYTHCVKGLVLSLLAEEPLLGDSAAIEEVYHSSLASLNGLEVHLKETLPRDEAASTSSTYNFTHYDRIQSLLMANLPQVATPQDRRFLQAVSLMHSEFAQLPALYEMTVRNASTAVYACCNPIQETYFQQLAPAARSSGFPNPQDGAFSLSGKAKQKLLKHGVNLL
UniProt Q9H0C8: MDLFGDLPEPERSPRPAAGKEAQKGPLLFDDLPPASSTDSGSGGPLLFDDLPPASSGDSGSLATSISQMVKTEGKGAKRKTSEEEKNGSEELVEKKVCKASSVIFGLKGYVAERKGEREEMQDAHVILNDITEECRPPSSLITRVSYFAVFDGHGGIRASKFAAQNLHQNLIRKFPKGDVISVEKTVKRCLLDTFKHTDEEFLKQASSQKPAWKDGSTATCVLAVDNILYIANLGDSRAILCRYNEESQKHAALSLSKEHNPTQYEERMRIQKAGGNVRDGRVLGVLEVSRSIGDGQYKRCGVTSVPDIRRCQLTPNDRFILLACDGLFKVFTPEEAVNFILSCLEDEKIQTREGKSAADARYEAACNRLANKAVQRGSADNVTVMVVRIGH
UniProt Q96HW7, whole entry: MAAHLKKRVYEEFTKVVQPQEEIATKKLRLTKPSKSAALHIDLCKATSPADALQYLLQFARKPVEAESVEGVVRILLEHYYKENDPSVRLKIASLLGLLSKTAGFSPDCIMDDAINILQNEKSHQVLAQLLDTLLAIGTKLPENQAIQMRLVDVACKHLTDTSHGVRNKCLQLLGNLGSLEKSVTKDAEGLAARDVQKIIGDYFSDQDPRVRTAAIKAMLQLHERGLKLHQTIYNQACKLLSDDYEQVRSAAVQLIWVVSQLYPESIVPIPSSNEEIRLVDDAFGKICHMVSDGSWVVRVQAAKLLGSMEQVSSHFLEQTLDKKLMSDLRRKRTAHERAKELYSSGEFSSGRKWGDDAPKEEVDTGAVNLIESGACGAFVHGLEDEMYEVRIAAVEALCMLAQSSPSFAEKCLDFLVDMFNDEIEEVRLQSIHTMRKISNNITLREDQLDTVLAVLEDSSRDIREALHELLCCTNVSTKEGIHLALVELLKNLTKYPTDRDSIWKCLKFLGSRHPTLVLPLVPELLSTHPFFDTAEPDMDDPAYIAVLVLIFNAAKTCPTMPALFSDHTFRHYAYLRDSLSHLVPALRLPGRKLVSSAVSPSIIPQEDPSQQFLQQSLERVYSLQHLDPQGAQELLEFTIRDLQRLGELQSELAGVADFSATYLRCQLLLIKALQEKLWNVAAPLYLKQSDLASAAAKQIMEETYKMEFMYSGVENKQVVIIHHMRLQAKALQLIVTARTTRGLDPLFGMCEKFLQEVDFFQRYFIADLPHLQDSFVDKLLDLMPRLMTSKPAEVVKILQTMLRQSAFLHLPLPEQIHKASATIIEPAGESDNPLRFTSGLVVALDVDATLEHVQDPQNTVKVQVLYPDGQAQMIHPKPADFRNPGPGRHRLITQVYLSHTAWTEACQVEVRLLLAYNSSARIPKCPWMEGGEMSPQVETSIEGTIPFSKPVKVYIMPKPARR
UniProt Q27J81, whole entry: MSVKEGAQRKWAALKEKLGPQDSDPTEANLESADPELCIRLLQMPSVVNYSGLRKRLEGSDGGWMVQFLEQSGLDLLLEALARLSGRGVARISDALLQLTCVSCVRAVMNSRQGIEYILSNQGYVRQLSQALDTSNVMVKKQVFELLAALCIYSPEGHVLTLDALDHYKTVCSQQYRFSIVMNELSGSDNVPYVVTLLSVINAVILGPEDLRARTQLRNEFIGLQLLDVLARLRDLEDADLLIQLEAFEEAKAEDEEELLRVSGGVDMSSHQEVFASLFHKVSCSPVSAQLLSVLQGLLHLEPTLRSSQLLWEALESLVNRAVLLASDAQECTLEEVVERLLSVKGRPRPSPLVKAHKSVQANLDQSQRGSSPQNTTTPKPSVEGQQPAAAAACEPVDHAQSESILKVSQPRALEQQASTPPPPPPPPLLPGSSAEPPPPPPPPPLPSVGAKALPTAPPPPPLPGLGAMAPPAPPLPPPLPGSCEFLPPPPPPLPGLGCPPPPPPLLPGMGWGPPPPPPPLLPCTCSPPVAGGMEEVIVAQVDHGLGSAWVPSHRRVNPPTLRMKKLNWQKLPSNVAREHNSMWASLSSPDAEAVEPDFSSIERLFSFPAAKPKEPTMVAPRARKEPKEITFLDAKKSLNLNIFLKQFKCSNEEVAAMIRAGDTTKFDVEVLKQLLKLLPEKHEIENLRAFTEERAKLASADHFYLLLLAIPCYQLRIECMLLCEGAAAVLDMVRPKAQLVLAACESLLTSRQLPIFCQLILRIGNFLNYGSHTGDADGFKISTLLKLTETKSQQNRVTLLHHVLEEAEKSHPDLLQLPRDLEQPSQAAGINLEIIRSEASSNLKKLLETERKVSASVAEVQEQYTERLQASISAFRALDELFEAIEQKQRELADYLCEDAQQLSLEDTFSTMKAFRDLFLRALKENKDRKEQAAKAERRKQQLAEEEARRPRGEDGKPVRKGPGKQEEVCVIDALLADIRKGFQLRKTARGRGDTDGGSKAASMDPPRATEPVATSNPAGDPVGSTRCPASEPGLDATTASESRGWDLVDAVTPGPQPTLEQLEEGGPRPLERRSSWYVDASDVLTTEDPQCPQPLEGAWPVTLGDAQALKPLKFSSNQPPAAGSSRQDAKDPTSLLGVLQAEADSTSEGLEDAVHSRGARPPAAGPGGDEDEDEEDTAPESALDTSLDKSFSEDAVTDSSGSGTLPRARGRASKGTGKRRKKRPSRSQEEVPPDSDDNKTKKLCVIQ
UniProt Q13123, whole entry: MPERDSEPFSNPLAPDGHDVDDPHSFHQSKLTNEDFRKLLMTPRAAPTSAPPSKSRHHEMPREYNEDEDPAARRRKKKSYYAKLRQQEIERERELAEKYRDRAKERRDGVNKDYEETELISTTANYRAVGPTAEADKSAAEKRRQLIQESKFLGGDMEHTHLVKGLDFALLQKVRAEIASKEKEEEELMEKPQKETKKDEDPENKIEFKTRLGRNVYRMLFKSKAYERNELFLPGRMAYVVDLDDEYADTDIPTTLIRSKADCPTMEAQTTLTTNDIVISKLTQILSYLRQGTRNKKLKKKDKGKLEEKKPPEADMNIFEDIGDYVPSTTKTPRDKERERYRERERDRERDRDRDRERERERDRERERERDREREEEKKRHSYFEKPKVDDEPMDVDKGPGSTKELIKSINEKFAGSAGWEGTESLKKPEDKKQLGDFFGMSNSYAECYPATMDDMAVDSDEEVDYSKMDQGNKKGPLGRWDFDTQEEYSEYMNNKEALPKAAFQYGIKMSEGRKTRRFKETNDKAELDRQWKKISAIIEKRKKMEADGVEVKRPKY
UniProt O14732: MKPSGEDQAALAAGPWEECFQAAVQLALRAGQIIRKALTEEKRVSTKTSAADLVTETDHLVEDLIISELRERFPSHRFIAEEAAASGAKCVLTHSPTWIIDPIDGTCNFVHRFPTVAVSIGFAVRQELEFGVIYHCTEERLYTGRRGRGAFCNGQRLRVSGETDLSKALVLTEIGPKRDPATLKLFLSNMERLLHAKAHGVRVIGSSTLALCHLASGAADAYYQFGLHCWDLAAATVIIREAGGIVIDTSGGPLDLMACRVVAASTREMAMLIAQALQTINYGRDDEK

| Target | dose-dependent thermal stabilisation call |
| --- | --- |
| LPP (UniProt Q93052) | inactive: 0 |
| HSPA8 (UniProt P11142) | inactive: 0 |
| HUS1 (UniProt O60921) | inactive: 0 |
| KNL1 (UniProt Q8NG31) | inactive: 0 |
| KIF15 (UniProt Q9NS87) | active: 1 |
| KHSRP (UniProt Q92945) | inactive: 0 |
| KRT1 (UniProt P04264) | inactive: 0 |
| KIF3B (UniProt O15066) | active: 1 |
| KIF3A (UniProt Q9Y496) | inactive: 0 |
| IKBKG (UniProt Q9Y6K9) | inactive: 0 |
| LAGE3 (UniProt Q14657) | inactive: 0 |
| LIMD1 (UniProt Q9UGP4) | active: 1 |
| KMT2A (UniProt Q03164) | inactive: 0 |
| KNSTRN (UniProt Q9Y448) | inactive: 0 |
| INTS12 (UniProt Q96CB8) | inactive: 0 |
| IST1 (UniProt P53990) | inactive: 0 |
| IVD (UniProt P26440) | inactive: 0 |
| HNRNPU (UniProt Q00839) | active: 1 |

| Target | dose-dependent thermal stabilisation call |
| --- | --- |
| ISCA2 (UniProt Q86U28) | inactive: 0 |
| HPS4 (UniProt Q9NQG7) | inactive: 0 |
| HOMER1 (UniProt Q86YM7) | inactive: 0 |
| HSPB11 (UniProt Q9Y547) | inactive: 0 |
| LANCL2 (UniProt Q9NS86) | inactive: 0 |
| ILKAP (UniProt Q9H0C8) | inactive: 0 |
| INTS4 (UniProt Q96HW7) | inactive: 0 |
| HSD17B8 (UniProt Q92506) | inactive: 0 |
| KLF16 (UniProt Q9BXK1) | inactive: 0 |
| IGBP1 (UniProt P78318) | inactive: 0 |
| KAT8 (UniProt Q9H7Z6) | inactive: 0 |
| INF2 (UniProt Q27J81) | inactive: 0 |
| KDM5C (UniProt P41229) | inactive: 0 |
| IK (UniProt Q13123) | inactive: 0 |
| HPRT1 (UniProt P00492) | inactive: 0 |
| IMPA2 (UniProt O14732) | inactive: 0 |
| JPT2 (UniProt Q9H910) | inactive: 0 |
| HSPA14 (UniProt Q0VDF9) | inactive: 0 |

Random excerpt: three entries already listed, in no set order.

| Target | dose-dependent thermal stabilisation call |
| --- | --- |
| HPS4 (UniProt Q9NQG7) | inactive: 0 |
| KDM5C (UniProt P41229) | inactive: 0 |
| INF2 (UniProt Q27J81) | inactive: 0 |

— the supplement of paper PMC7666118
